Test results reported in PMC7782713, “Structural basis of Naa20 activity towards a canonical NatB substrate” (Communications Biology, 2021).

Test system: CtNaa20 + CtNaa25
Test: EMSA
Details: 5-20 uM protein, 5 uM RNA; 20 mM Tris pH 8, 200 mM NaCl, 10 mM MgCl2, 10 mM KCl, 20% glycerol, 20 C, 30 min; 0.8% agarose gel in 0.5x TB; recombinant protein; protein details: C-terminal His6,N-terminal His6, TEV-cleavable

## GGGCCUCUAGCCGGGCAACCGGCCGGCGGCUC [CtES27 fragment (tip of expansion segment 27)]
  binding result: binds

For at least one entry, the source does not settle the construct or the ends of the probe.
